Values of other authors, collected in US12421321B2, “Methods for treating fibrodysplasia ossificans progressiva” (Ashibio, Inc., priority 2023, dated 2025).
At least one compound was matched to its structure with a doubt left.

Test system: heterotopic ossification; active MMP-9
Details: cited from earlier work

CN(C)c1ccc(O)c2c1C[C@H]1C[C@H]3[C@H](N(C)C)C(O)=C(C(N)=O)C(=O)[C@@]3(O)C(O)=C1C2=O [minocycline]
Bone formation compared to vehicle-treated mice (heterotopic ossification in mice): reduced bone formation | Percentage of cells expressing active MMP-9/total MMP-9 (minocycline treated mice, ± S.E.M.): 4.1%±0.56
